These are yes or no findings as the source states them, for the method shown. In cells and extracts the contact can be indirect. Some entries that bind do so weakly or less than the wild type.
Biological target: T1, Drosophila Mnat9 (microtubule-associated N-acetyltransferase) (Drosophila) (UniProt Q9V9V9)
T1 sequence: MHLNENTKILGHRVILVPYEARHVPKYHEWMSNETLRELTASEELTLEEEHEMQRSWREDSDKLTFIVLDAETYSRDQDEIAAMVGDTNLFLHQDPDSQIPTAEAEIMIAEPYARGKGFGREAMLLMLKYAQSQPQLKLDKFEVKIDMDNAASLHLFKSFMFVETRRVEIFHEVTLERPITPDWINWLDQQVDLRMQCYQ
Assay: co-IP; Drosophila S2 cell lysate (HEPES buffer, 0.5% CHAPS, protease and phosphatase inhibitors); beads with anti-Mnat9 antibody (1:100) or control rabbit IgG, incubated with sample 2 h at 4 °C, washed at least four times; blot with anti-Mer

B1: Merlin (Mer) (protein, UniProt Q24564 1-635)
chain: MSPFGSKKNRSLSVRVSTFDSELEFKLEPRASGQDLFDLVCRTIGLRESWYFGLQYVDTRSNVSWLKMEKRVRDQRVELHASNNVYVFSFYAKFFPENVSEELIQEITQHLFFLQVKQSILSMDIYCRPEASVLLASYAVHVQYGPYDYETYKDGMLAGGELLPKGVTDQYQMTPEMWEERIKTWYMDHEPMTRDEVEMEYLKIAQDLDMYGVNYFPITNKNKTKLWLGVTSVGLNIYDERDKLTPKTTFQWNEIRHVSFDDKKFTIRLVDAKVSNFIFYSQDLHINKMILDLCKGNHDLYMRRRKPDTMEIQQMKAQAKEEKQRRQIERKKFIREKKLREKAEHERYELEKSMEHLQNEMRMANDALRRSEETKELYFEKSRVNEEQMQLTECKANHFKTEMDRLRERQMKIEREKHDLEKKIRDADFYVHQLTVENDKREAETEKLRKELICAKMAEREATARLLEFLNSGRKSSTDSLLTASSVSHAANTASSMAAISTPSLITSSSTNDLETAGGAELTTHSSHYLVQGDNSSGISDDFEPKEFILTDNEMEQITNEMERNHLDYLRNSKQVQSQLQTLRSEIAPHKIEENQSNLDILSEAQIKAGENKYSTLKKLKSGSTKARVAFFEEL
binding: binds

From paper PMC8810759
